# Laboratory results taken from PubChem BioAssay AID2685 (National Center for Advancing Translational Sciences (NCATS), 2010).
# This is one part of the list. These are further read-outs of the screen, such as a control signal, another cell line or another target. No call is given for them. The list favours compounds with an active or inconclusive main result. The note in brackets gives the kind of curve behind each potency; many fits are weak.
# Experiment: qHTS Assay for Lipid Storage Modulators in Drosophila S3 Cells;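 for cell number change: cells counted by Cell Tracker Red CMTPX staining in the red channel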
# Details: BODIPY lipid droplet fluorescence, 18-24 h; for cell number change: measured here: cell count max response, cells fed with added oleic acid
# Summary of the method: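 Drosophila S3 cells got compounds at several concentrations plus oleic acid (400 uM solution). Laser-scanning cytometry with 488 nm excitation read lipid droplets at 500-530 nm and cells at 575-640 nm. Percent activity was relative to 20 uM Triacsin C.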
# [1] = measured here: lipid fluorescence (Fed channel) AC50, cells fed with added oleic acid
# [2] = measured here: cell number channel AC50, cells fed with added oleic acid
Compound,cell number change,AC50 [1],AC50 [2]
COc1ccccc1C(=O)Nc1ccc2c(c1)CN(C(=O)CSC)CC2,-16.3%,"11.6 µM [falling, partial curve]",
O=C(N/N=C/c1ccccc1Cl)c1[nH]c2ccc(Br)cc2c1-c1ccccc1,-18%,"16.4 µM [falling, single point]",
CC(C)(C)C1CCC(=NNC(=O)C2COc3ccccc3O2)CC1 (stereo unspecified),-1%,"0.146 µM [rising, full curve, poor fit]",
CCc1ccc(C2CC(=O)Nc3c2c(=O)nc2c(C)cccn32)cc1 (stereo unspecified),-28.8%,,"0.00461 µM [falling, full curve, poor fit]"
O=C(Nc1nc2ccc([N+](=O)[O-])cc2s1)c1c(F)cccc1F,5.98%,"3.66 µM [falling, partial curve, poor fit]","6.51 µM [falling, single point]"
CC(C)(C)c1ccc(C(=O)NN=C2CCCC2)cc1,29.5%,"11.6 µM [falling, single point]",
O=C(Nc1ccc(Cl)cc1F)C1CCN(S(=O)(=O)c2cccc3nonc23)CC1,8.11%,"6.51 µM [rising, single point]",
Cn1c(=O)c2nnn(/N=C(\c3ccccc3)C3CC3)c2n(C)c1=O,-0.612%,,
C=CCOc1cccc(/C=C2\C(=O)N(Cc3ccc(C)cc3)C(C)=C2C(=O)OC)c1,-0.141%,"3.26 µM [rising, single point]",
NNC(=O)c1ccc(Cn2cc(Cl)cn2)cc1,62%,"16.4 µM [rising, partial curve]","0.103 µM [rising, full curve, poor fit]"
C[C@@H](NC(=O)Cn1ccc(N)nc1=O)c1cccc2ccccc12,-8.06%,"0.651 µM [rising, single point]",
CC(C)NC(=O)C1CCN(C(=O)C(C(=O)c2ccccc2)n2cc(Cl)ccc2=O)CC1 (stereo unspecified),0.934%,"32.6 µM [falling, partial curve]",
COc1ccc(/C=C/C(=O)NCCCc2ccccc2)cc1OC,-56.5%,"3.26 µM [rising, full curve, poor fit]","29.1 µM [falling, single point]"
COc1ccc(CCNC(=O)c2ccc(CNS(=O)(=O)c3cccc(Cl)c3)cc2)cc1OC,-29.8%,,
O=C(O)c1ccccc1C(=O)NCC(O)COc1ccc(Cl)cc1 (stereo unspecified),27.4%,,
COc1cccc(OC)c1OCCN1CCCC1,9.46%,,
COc1cccc(C2/C(=C(\O)c3c(C)nc4c(C)cccn34)C(=O)C(=O)N2CCCN(C)C)c1OC (stereo unspecified),-30%,"5.8 µM [falling, full curve]","6.51 µM [falling, full curve, poor fit]"
CC(SCCc1ccccn1)C(=O)O (stereo unspecified),39.7%,"0.00461 µM [rising, full curve, poor fit]",
COP(=O)(CN(Cc1ccccc1)C(=S)Nc1c(C)cccc1C)OC,,"1.46 µM [rising, partial curve]","1.84 µM [rising, partial curve, poor fit]"
Cc1csc(SC(C)C(=O)Nc2ccc(S(=O)(=O)N3CCCC3)cc2)n1 (stereo unspecified),-10.6%,"0.00517 µM [rising, full curve, poor fit]",

# 2 records drawn at random from those above, as already listed:
Compound,cell number change,AC50 [1],AC50 [2]
O=C(O)c1ccccc1C(=O)NCC(O)COc1ccc(Cl)cc1 (stereo unspecified),27.4%,,
CC(SCCc1ccccn1)C(=O)O (stereo unspecified),39.7%,"0.00461 µM [rising, full curve, poor fit]",

# The list continues.

Compound,cell number change,AC50 [1],AC50 [2]
CC(C)CCC(C)NC(=O)CN1C(=O)NC(C)(c2ccc3ccccc3c2)C1=O (stereo unspecified),23.2%,,
Cc1cccc(N(C(=O)CCC(=O)Nc2ccccn2)C(C(=O)NC(C)C)c2ccc(O)cc2)c1 (stereo unspecified),6.48%,,
CC1=C(C(=O)OC2CCCCC2)C(c2cccc([N+](=O)[O-])c2)NC(=O)N1 (stereo unspecified),8.11%,"0.82 µM [falling, full curve]",
Cc1nc(-c2ccc(C(=O)Nc3ccc(F)cc3)cc2)cs1,10.8%,,"2.91 µM [falling, single point]"
COc1ccc(C(C)NC(=O)Nc2ccc(C(C)=O)cc2)cc1OC (stereo unspecified),51.2%,"6.51 µM [rising, partial curve]","10.3 µM [rising, partial curve, poor fit]"
CCOc1ccc(/C=N/NC(=O)c2nnn(-c3nonc3N)c2CN2CCC(C)CC2)cc1,-10.3%,"0.116 µM [falling, full curve, poor fit]",
O=C(CN1C(=O)COc2ccccc21)NCCCN1CCCCC1,-25.7%,,
CNCC(=O)Nc1ccc(Cl)c(C(F)(F)F)c1,48%,"20.6 µM [rising, single point]",
COc1ccc(/C=C/C(=O)Nc2ccc(-n3nncc3-c3ccccc3)cc2)cc1OC,1.54%,"0.92 µM [rising, full curve]",
Cc1ccc(-n2c(-c3ccccc3)c[n+]3c2CCC3)cc1,-35%,,
S=C1NC2(CCCCC2)NN1c1ccccc1,,"0.366 µM [falling, single point]",
COC(=O)C1CCN(C(=O)COC(=O)c2ccc(OC)c(S(=O)(=O)N3CCCc4ccccc43)c2)CC1,,,"0.082 µM [falling, full curve, poor fit]"
CCC1C/C(=C/c2cccs2)C(=O)/C(=C/c2cccs2)C1 (stereo unspecified),12.3%,"0.164 µM [rising, full curve, poor fit]",
COc1ccc(/C=C/CN2CCC(n3nccc3NC(=O)C3CC3)CC2)cc1,20.5%,,
Cc1ccc(CNCC(=O)Nc2cccc(S(=O)(=O)NC3=NCCCCC3)c2)cc1,,"2.91 µM [rising, single point]",
COc1cccc(OC)c1C(=O)OCC(=O)Nc1ccc(OC(F)(F)F)cc1,,"1.03 µM [rising, partial curve]","3.26 µM [rising, partial curve]"
Cc1cc(NC(c2ccc(Cl)cc2)c2ccc3cccnc3c2O)no1 (stereo unspecified),,"0.58 µM [falling, single point]",
CC(NC(=O)C(=O)Nc1nccs1)c1ccccc1 (stereo unspecified),-31.1%,,"1.84 µM [rising, single point]"
O=C(OCCc1ccccc1)c1cc(O)c(O)c(O)c1,-34.6%,"2.06 µM [falling, partial curve, poor fit]","18.4 µM [falling, single point]"
